This is one part of the list. This data set is noisy: repeats of one test often differ as much as different tests do.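 HEK293T cells were given each compound shortly before transfection with a reporter in which red mCherry is followed by the SARS-CoV-2 frameshift element and then GFP in the −1 frame, so GFP appears only after frameshifting.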

In assay [1] the test system is HEK293T. Put plainly: percent viability (nuclei count) relative to control; higher = more viable cells. Conditions: 10 µM; 24 h.
The subject of assay [2] is SARS-CoV-2 -1 PRF reporter mCherry-FSE-GFP(-1). Put plainly: mCherry (red) intensity as percent of control; higher = higher upstream reporter expression. Conditions: 10 µM; 24 h; HEK293T.
The test system is the same in assay [3]. The experiment in a line: percent effect, decrease of GFP/mCherry ratio (-1 PRF reporter) relative to controls; higher = stronger frameshift inhibition. Conditions: 10 µM; 24 h; HEK293T.

In the case of `CCC(C)(CC)OC(N)=O` [emylcamate], in assay [1], the percent viability was found to be 46.4%. The same molecule gave a mCherry in assay [2] of 85.1%. In addition, in assay [3], the percent effect is -10.8%.
As to `C#CCN(C)[C@H](C)Cc1ccccc1` [selegiline], the percent viability in assay [1] is 199%. The molecule further registered a mCherry in assay [2] of 94.4%. In assay [3], the percent effect is -4.74%.
`O=C(O)c1nn(Cc2ccc(Cl)cc2Cl)c2ccccc12` [lonidamine]: the percent viability in assay [1] was found to be 30.8%. In addition, the mCherry in assay [2] came out at 99.6%. For the same molecule, the percent effect in assay [3] was -2%.
For `CC(C)(CO)[C@@H](O)C(=O)NCCCO` [dexpanthenol], in assay [2], the mCherry stood at 87%. Further, the percent effect in assay [3] is -2.1%.
As for `CN1CC[C@]23c4c5ccc(O)c4O[C@H]2C(=O)CC[C@@]3(O)[C@H]1C5` [oxymorphone], the percent viability in assay [1] came out at 197%. The molecule further yielded a mCherry in assay [2] of 98.3%. Further, the percent effect in assay [3] is 0.8%.
Turning to `Cc1ncsc1CCCl` [clomethiazole], the percent viability in assay [1] is 264%. In addition, the mCherry in assay [2] was 102%. The percent effect in assay [3] was -11.7%.
Turning to `CN1[C@@H]2CC[C@H]1C[C@@H](OC(=O)C(CO)c1ccccc1)C2` (stereo not given in full), in assay [1], the percent viability came out at 248%. The same molecule registered a mCherry in assay [2] of 80.7%. In assay [3], the percent effect was -2.9%.
For the molecule `CC[C@@H](CO)NC(=O)[C@@H]1C=C2c3cccc4c3c(cn4C)C[C@H]2N(C)C1` [Sansert], in assay [1], the percent viability is 324%. This molecule came in with a mCherry in assay [2] of 119%. Moreover, the percent effect in assay [3] was -4.78%.
`O=C1c2cccc(O)c2C(=O)c2c(O)cccc21` [dantron] showed a mCherry in assay [2] of 75.8%. Further, the percent effect in assay [3] is -1.78%.
On to `Cc1ncc(CNC(=O)N(CCCl)N=O)c(N)n1` [nimustine], for which the percent viability in assay [1] came out at 247%. The molecule also came in with a mCherry in assay [2] of 113%. The percent effect in assay [3] worked out at 1.44%.
In the same order, the values of `CNC(C)CC1CCCCC1` (stereo not given) [propylhexedrine] are 274%, 94.5% and -0.629%.
The matching figures for `CCC1(CC)C(=O)C=CNC1=O` [pyrithyldione]: 244%, 91.3% and 0.834%.
Consider `COc1cc([C@@H]2c3cc4c(cc3[C@H](O)[C@H]3COC(=O)[C@H]23)OCO4)cc(OC)c1OC`, for which the percent viability in assay [1] was determined as 18.7%. For the same molecule, the mCherry in assay [2] is 74.4%. For the same molecule, in assay [3], the percent effect was -3.56%.
The matching figures for `CCN(CC)CCOC(=O)C(O)(c1ccccc1)c1ccccc1` [benactyzine]: 216%, 94.6% and -2.43%.

Source of the values: the supplement of paper PMC8256030.
